{"source": "PubChem BioAssay AID686938 (Drosophila RNAi Screening Center, 2013)", "screen": "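Knock-downs reducing store-operated calcium influx in Drosophila cells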 (primary screen)", "cells": "Drosophila S2R+ cells", "reagent": "long dsRNA against Drosophila genes, about 0.25 µg dsRNA per well, roughly 10,000 cells", "duration": "5 days of knock-down before the calcium assay", "treatment": "thapsigargin (SERCA pump blocker) to empty calcium stores; entry signal taken 4 min after adding it", "detection": "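Per-well fluo-4 fluorescence in two replicates, unnormalised, measured in resting cells and 4 min after store depletion by the SERCA blocker thapsigargin; ratio of the two present in few wells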", "reading the numbers": "calcium entry signal: higher = stronger calcium signal after store depletion; resting calcium signal: higher = higher resting calcium signal", "units": "calcium entry signal in fluorescence units; resting calcium signal in fluorescence units", "call rule": "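Hit if the duplicate-averaged plate z-score for entry over resting signal is under −3; wells with weak total dye signal (Fmax z < −2) or more than 5 off-targets removed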", "calls": "active = strongly reduced calcium entry; inactive = no strong reduction", "note": "The deposit covers about 23,000 reagents; below is an unselected part of those with a known target gene and a result. In the full data, 75 (0.33%) were called active. 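Raw plate signals without normalisation; calls rest on plate z-scores that were not deposited; ratio present for only 364 wells.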 A number with no mark means an inactive call. Not given: the dose of the treatment."}
{"predicted target":"CG11403 (GeneID 31072)","DRSC id":"DRSC18532","calcium entry signal, replicate 1":3.68e7,"calcium entry signal, replicate 2":4.34e7,"resting calcium signal, replicate 1":1.86e7,"resting calcium signal, replicate 2":2.41e7}
{"predicted target":"RpS24 (GeneID 37589)","DRSC id":"DRSC04414","calcium entry signal, replicate 1":1.96e7,"calcium entry signal, replicate 2":2.39e7,"resting calcium signal, replicate 1":1.25e7,"resting calcium signal, replicate 2":1.44e7}
{"predicted target":"Fign (GeneID 33544)","DRSC id":"DRSC00592","calcium entry signal, replicate 1":4.86e7,"resting calcium signal, replicate 1":2.65e7}
{"predicted target":"flap (GeneID 37519)","DRSC id":"DRSC03918","calcium entry signal, replicate 1":2.95e7,"calcium entry signal, replicate 2":4.49e7,"resting calcium signal, replicate 1":1.39e7,"resting calcium signal, replicate 2":2.06e7}
{"predicted target":"flap (GeneID 37519)","DRSC id":"DRSC04087","calcium entry signal, replicate 1":3.72e7,"resting calcium signal, replicate 1":1.73e7}
{"predicted target":"CG34169 (GeneID 5740400)","DRSC id":"DRSC01579","calcium entry signal, replicate 1":2.93e7,"calcium entry signal, replicate 2":4.04e7,"resting calcium signal, replicate 1":1.55e7,"resting calcium signal, replicate 2":1.79e7}
{"predicted target":"scaf6 (GeneID 3346235)","DRSC id":"DRSC10075","calcium entry signal, replicate 1":3.24e7,"calcium entry signal, replicate 2":4.38e7,"resting calcium signal, replicate 1":1.47e7,"resting calcium signal, replicate 2":2.77e7}
{"predicted target":"scaf6 (GeneID 3346235)","DRSC id":"DRSC10676","calcium entry signal, replicate 1":3.17e7,"calcium entry signal, replicate 2":5.43e7,"resting calcium signal, replicate 1":1.68e7,"resting calcium signal, replicate 2":2.19e7}
{"predicted target":"scaf6 (GeneID 3346235)","DRSC id":"DRSC10678","calcium entry signal, replicate 1":4.42e7,"calcium entry signal, replicate 2":6.45e7,"resting calcium signal, replicate 1":2.09e7,"resting calcium signal, replicate 2":2.62e7}
{"predicted target":"CG3345 (GeneID 33192)","DRSC id":"DRSC00596","calcium entry signal, replicate 1":3.71e7,"resting calcium signal, replicate 1":2.23e7}
{"predicted target":"Atpalpha (GeneID 48971)","DRSC id":"DRSC14119","calcium entry signal, replicate 1":5.50e7,"calcium entry signal, replicate 2":3.84e7,"resting calcium signal, replicate 1":2.43e7,"resting calcium signal, replicate 2":1.75e7}
{"predicted target":"CG16972 (GeneID 34715)","DRSC id":"DRSC02550","calcium entry signal, replicate 1":4.79e7,"resting calcium signal, replicate 1":2.30e7}
{"predicted target":"CG13559 (GeneID 37720)","DRSC id":"DRSC04197","calcium entry signal, replicate 1":3.39e7,"calcium entry signal, replicate 2":4.50e7,"resting calcium signal, replicate 1":1.73e7,"resting calcium signal, replicate 2":2.00e7}
{"predicted target":"mRpS30 (GeneID 32530)","DRSC id":"DRSC20107","calcium entry signal, replicate 1":3.70e7,"calcium entry signal, replicate 2":4.42e7,"resting calcium signal, replicate 1":1.54e7,"resting calcium signal, replicate 2":1.82e7}

No new results follow: an excerpt of the list.
{"predicted target":"scaf6 (GeneID 3346235)","DRSC id":"DRSC10075","calcium entry signal, replicate 1":3.24e7,"calcium entry signal, replicate 2":4.38e7,"resting calcium signal, replicate 1":1.47e7,"resting calcium signal, replicate 2":2.77e7}
{"predicted target":"scaf6 (GeneID 3346235)","DRSC id":"DRSC10676","calcium entry signal, replicate 1":3.17e7,"calcium entry signal, replicate 2":5.43e7,"resting calcium signal, replicate 1":1.68e7,"resting calcium signal, replicate 2":2.19e7}
